For 11 targets, log2 fold change results are on record in the supplement of paper PMC12819154, “High-throughput peptide-centric local stability assay extends protein–ligand identification to membrane proteins, tissues and bacteria” (Nature Structural & Molecular Biology, 2025).

By UniProt entry, the sequences of proteins in these tests, tags left out. Where a name states a change or a piece, a line headed by the entry shows the natural chain unless it says otherwise.
UniProt Q6VVW5: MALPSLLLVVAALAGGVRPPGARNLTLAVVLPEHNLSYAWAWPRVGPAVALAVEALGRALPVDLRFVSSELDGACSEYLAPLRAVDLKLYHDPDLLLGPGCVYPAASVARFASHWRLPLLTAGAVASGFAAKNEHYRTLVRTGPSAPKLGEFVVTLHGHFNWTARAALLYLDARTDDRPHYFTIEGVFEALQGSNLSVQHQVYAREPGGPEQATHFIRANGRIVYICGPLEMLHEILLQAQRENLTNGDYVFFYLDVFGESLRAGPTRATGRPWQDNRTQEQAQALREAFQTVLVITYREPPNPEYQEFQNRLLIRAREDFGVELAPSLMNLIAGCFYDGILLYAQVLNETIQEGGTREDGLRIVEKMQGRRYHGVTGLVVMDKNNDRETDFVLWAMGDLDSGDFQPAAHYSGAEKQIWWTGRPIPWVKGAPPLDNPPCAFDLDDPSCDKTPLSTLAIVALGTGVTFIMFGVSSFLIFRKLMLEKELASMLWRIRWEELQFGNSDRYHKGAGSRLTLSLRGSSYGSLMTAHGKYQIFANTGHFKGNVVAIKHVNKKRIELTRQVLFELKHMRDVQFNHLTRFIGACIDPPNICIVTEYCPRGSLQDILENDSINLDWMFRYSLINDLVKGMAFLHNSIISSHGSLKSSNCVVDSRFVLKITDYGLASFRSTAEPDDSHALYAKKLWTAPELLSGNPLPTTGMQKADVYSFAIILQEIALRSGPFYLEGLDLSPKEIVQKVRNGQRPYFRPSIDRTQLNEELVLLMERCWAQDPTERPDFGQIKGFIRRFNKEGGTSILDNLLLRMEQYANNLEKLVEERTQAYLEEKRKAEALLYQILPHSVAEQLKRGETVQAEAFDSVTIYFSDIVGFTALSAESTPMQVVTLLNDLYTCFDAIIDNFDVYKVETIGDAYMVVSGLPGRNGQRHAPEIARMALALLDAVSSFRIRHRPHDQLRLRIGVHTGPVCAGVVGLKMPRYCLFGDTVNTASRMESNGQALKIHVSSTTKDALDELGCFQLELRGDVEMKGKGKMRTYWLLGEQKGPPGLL
UniProt Q6NSU3: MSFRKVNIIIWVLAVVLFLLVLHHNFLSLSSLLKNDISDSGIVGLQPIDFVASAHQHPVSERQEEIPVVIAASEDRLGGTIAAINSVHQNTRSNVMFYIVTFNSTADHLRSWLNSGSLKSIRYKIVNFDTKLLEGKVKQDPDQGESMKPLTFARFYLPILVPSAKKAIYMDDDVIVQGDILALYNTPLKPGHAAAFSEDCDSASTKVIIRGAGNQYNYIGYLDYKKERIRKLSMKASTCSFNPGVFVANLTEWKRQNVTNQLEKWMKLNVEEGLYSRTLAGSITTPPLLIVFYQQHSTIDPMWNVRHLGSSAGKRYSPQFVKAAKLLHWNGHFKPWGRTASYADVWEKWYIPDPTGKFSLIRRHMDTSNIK
UniProt Q6PHZ5: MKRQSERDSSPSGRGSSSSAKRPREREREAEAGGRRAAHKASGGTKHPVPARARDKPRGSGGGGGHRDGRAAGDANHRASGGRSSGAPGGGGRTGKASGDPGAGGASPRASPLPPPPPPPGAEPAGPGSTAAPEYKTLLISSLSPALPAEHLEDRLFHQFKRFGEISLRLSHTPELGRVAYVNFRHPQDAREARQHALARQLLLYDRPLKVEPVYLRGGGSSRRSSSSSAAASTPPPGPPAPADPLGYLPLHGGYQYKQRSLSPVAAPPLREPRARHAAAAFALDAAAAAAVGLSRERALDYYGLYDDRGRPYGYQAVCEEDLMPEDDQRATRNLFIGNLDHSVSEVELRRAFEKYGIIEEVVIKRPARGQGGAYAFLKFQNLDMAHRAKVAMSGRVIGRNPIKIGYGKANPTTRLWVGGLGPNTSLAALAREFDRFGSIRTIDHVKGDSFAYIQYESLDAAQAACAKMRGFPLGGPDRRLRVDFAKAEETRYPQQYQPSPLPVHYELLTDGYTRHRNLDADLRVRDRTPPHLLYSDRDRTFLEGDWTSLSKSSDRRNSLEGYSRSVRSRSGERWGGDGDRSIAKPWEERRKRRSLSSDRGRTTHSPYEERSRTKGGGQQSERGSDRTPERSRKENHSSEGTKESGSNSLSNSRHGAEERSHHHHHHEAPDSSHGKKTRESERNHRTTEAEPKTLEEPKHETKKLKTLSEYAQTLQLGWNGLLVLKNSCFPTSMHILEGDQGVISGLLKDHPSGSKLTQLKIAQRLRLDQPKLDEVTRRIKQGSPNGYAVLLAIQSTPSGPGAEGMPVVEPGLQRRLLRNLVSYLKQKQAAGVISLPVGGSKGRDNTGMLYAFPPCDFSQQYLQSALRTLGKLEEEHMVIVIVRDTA
UniProt Q6NS82: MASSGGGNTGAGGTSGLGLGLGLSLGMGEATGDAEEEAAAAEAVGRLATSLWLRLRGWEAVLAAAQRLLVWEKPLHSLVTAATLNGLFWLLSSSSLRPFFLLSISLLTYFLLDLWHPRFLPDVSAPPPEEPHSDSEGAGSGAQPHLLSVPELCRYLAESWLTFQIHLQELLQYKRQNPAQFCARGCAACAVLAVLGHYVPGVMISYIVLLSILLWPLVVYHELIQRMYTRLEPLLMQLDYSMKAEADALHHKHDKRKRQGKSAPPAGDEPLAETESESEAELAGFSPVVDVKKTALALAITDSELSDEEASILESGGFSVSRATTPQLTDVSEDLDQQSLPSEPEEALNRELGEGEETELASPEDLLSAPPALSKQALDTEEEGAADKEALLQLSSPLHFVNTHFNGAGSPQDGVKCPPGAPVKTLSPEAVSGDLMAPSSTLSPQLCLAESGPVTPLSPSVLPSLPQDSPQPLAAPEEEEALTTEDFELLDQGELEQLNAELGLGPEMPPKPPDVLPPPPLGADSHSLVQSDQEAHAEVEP
UniProt Q6GV12: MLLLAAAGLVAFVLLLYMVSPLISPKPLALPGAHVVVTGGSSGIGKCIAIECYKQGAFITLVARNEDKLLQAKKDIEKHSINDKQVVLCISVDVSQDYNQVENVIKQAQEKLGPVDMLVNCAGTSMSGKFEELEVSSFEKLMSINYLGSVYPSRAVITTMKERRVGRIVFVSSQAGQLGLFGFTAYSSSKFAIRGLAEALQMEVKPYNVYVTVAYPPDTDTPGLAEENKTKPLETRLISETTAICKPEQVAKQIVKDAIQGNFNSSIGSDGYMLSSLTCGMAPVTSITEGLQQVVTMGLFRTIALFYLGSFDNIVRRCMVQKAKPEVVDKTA
UniProt Q6QI06, whole entry: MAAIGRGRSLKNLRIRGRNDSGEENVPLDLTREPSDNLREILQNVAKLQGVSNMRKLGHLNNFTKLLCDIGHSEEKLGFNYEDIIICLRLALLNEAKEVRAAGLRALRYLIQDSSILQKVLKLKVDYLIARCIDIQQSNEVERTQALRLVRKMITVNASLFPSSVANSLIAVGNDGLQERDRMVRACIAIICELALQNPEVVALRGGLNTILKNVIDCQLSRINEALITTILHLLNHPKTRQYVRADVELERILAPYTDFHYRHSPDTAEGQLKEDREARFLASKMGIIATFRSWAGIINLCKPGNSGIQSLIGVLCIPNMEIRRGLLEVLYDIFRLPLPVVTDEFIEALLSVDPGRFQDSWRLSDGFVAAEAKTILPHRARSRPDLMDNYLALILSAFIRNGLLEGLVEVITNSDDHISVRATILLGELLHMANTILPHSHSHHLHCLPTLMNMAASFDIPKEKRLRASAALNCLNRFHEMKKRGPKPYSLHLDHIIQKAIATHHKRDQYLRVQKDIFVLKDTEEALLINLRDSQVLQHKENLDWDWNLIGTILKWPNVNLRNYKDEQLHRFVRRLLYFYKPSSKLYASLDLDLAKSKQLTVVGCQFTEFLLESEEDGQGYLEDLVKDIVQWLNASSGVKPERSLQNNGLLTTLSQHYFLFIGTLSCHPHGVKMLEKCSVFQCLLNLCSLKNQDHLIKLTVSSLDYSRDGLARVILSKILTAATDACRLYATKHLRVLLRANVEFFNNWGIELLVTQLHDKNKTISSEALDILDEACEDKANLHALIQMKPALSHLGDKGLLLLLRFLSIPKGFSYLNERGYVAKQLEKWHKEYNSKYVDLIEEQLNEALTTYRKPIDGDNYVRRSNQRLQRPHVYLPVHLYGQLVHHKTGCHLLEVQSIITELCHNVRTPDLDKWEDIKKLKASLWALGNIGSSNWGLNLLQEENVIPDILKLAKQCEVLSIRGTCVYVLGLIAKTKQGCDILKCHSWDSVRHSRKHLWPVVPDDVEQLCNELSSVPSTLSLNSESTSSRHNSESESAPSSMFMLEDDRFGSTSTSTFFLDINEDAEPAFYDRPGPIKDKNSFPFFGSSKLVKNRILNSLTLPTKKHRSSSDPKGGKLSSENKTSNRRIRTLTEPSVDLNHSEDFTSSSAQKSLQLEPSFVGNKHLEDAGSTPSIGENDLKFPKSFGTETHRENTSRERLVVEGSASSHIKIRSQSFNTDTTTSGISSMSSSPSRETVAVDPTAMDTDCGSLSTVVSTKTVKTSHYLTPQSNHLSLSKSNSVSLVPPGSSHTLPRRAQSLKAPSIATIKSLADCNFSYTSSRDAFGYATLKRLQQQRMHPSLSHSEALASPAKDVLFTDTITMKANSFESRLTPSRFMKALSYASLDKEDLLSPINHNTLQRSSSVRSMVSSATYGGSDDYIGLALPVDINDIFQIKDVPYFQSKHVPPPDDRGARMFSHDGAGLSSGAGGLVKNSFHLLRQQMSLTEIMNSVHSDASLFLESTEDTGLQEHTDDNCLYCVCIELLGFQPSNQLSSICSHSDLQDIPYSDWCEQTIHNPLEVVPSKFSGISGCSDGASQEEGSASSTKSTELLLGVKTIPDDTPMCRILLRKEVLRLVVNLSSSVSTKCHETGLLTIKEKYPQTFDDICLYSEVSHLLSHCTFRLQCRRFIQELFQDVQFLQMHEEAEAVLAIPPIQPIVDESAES
UniProt Q6P5E4: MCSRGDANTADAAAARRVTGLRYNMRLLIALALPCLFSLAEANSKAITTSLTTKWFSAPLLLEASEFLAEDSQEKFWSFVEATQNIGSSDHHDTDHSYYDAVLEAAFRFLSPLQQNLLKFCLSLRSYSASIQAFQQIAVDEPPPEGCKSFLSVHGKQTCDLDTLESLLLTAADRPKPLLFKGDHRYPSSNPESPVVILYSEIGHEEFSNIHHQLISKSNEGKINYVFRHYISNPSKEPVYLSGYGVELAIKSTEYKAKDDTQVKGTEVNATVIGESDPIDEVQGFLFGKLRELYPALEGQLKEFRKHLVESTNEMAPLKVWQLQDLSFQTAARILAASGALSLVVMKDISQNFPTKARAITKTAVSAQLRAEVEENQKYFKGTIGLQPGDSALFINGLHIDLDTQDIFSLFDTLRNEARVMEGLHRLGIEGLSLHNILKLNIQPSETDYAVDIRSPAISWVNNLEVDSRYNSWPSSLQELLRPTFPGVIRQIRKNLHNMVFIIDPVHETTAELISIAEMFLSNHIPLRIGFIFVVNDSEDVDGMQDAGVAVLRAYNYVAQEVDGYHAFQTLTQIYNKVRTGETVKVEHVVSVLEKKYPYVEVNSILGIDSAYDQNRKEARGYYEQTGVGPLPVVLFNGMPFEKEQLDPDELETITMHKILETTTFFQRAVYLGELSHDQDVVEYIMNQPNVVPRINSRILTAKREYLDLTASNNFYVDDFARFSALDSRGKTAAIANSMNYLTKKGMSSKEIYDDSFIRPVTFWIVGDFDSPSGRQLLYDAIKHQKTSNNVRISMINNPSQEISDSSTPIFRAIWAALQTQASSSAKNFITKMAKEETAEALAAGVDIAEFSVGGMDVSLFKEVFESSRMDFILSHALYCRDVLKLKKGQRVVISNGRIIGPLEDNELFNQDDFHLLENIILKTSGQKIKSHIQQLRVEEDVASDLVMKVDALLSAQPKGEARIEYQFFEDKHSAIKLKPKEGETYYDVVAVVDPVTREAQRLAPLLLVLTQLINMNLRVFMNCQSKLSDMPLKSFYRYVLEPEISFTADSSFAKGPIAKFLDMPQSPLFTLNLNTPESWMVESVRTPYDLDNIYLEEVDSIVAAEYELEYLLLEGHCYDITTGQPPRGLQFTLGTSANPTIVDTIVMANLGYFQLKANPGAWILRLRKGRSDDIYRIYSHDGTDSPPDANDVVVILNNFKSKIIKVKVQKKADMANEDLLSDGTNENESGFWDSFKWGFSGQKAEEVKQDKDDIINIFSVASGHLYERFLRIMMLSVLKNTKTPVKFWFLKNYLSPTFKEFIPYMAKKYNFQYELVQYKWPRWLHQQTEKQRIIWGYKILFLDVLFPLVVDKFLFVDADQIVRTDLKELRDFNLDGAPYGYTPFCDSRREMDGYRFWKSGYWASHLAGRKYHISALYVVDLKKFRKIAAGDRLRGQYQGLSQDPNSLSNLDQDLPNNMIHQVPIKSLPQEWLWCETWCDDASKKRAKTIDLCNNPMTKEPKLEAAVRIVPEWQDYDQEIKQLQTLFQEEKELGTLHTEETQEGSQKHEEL

Compound in this test: CN[C@@H]1C[C@H]2O[C@@](C)([C@@H]1OC)n1c3ccccc3c3c4c(c5c6ccccc6n2c5c31)C(=O)NC4 [staurosporine]
In words: log2 fold change of tryptic peptide abundance, ligand vs vehicle (limited proteolysis) (log2 ratio); higher = more trypsin-susceptible (destabilized). The note with it: ligand concentration: 20 uM; sample: mouse liver crude lysate; replicate design: treated separately.

Some of the results follow. Most entries show no effect beyond the scatter of the controls.

In the case of “UniProt Q6VVW5 (peptide sequence: GSSYGSLMTAHGK, peptide start residue: 521)”, the log2 fold change was -0.119.

Turning to “UniProt Q6PD03 (peptide sequence: KELEREELWK, peptide start residue: 447)”, the log2 fold change is 0.16. As to “UniProt Q6NSU3 (peptide sequence: FYLPILVPSAKK, peptide start residue: 155)”, the log2 fold change amounted to 0.223. As for “UniProt Q6TYB5 (peptide sequence: LSMLSQEIQTLKR, peptide start residue: 186)”, the figure is 0.139; as for “UniProt Q6PHZ5 (peptide sequence: SLSPVAAPPLREPR, peptide start residue: 261)”, -0.414. Turning to “UniProt Q6PIX9 (peptide sequence: LLDVPLSDR, peptide start residue: 217)”, the log2 fold change turned out to be 0.237. Take “UniProt Q6NS82 (peptide sequence: AEADALHHK, peptide start residue: 244)”: the log2 fold change was 0.244. The same measure for “UniProt Q6GV12 (peptide sequence: AKPEVVDKTA, peptide start residue: 323)”: -0.241.

For “UniProt Q6QI06 (peptide sequence: RAQSLKAPSIATIK, peptide start residue: 1298)”, the log2 fold change is -0.392. In the case of “UniProt Q6P6J4 (peptide sequence: YKDGCDHIGEHR, peptide start residue: 139)”, the log2 fold change was -0.178.

Regarding “UniProt Q6P5E4 (peptide sequence: VDALLSAQPK, peptide start residue: 950)”, the log2 fold change was -1.1.
